Measurements as given in PMC10756122.

Protein sequences, listed by entry. Tags and fused reporters are not part of them. Lines headed by an entry give the natural chain unless they say otherwise; changes in a name come on top. Residues count along the entry.
UniProt O60911: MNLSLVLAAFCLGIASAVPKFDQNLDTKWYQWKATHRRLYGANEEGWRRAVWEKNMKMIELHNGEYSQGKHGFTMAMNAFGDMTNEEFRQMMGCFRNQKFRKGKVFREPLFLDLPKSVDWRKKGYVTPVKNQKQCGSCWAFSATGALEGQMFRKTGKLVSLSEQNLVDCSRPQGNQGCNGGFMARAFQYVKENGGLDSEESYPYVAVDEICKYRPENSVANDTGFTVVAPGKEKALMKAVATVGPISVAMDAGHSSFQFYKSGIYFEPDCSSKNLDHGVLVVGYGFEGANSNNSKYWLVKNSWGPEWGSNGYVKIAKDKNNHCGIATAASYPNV
UniProt P02751, residues 32-2477: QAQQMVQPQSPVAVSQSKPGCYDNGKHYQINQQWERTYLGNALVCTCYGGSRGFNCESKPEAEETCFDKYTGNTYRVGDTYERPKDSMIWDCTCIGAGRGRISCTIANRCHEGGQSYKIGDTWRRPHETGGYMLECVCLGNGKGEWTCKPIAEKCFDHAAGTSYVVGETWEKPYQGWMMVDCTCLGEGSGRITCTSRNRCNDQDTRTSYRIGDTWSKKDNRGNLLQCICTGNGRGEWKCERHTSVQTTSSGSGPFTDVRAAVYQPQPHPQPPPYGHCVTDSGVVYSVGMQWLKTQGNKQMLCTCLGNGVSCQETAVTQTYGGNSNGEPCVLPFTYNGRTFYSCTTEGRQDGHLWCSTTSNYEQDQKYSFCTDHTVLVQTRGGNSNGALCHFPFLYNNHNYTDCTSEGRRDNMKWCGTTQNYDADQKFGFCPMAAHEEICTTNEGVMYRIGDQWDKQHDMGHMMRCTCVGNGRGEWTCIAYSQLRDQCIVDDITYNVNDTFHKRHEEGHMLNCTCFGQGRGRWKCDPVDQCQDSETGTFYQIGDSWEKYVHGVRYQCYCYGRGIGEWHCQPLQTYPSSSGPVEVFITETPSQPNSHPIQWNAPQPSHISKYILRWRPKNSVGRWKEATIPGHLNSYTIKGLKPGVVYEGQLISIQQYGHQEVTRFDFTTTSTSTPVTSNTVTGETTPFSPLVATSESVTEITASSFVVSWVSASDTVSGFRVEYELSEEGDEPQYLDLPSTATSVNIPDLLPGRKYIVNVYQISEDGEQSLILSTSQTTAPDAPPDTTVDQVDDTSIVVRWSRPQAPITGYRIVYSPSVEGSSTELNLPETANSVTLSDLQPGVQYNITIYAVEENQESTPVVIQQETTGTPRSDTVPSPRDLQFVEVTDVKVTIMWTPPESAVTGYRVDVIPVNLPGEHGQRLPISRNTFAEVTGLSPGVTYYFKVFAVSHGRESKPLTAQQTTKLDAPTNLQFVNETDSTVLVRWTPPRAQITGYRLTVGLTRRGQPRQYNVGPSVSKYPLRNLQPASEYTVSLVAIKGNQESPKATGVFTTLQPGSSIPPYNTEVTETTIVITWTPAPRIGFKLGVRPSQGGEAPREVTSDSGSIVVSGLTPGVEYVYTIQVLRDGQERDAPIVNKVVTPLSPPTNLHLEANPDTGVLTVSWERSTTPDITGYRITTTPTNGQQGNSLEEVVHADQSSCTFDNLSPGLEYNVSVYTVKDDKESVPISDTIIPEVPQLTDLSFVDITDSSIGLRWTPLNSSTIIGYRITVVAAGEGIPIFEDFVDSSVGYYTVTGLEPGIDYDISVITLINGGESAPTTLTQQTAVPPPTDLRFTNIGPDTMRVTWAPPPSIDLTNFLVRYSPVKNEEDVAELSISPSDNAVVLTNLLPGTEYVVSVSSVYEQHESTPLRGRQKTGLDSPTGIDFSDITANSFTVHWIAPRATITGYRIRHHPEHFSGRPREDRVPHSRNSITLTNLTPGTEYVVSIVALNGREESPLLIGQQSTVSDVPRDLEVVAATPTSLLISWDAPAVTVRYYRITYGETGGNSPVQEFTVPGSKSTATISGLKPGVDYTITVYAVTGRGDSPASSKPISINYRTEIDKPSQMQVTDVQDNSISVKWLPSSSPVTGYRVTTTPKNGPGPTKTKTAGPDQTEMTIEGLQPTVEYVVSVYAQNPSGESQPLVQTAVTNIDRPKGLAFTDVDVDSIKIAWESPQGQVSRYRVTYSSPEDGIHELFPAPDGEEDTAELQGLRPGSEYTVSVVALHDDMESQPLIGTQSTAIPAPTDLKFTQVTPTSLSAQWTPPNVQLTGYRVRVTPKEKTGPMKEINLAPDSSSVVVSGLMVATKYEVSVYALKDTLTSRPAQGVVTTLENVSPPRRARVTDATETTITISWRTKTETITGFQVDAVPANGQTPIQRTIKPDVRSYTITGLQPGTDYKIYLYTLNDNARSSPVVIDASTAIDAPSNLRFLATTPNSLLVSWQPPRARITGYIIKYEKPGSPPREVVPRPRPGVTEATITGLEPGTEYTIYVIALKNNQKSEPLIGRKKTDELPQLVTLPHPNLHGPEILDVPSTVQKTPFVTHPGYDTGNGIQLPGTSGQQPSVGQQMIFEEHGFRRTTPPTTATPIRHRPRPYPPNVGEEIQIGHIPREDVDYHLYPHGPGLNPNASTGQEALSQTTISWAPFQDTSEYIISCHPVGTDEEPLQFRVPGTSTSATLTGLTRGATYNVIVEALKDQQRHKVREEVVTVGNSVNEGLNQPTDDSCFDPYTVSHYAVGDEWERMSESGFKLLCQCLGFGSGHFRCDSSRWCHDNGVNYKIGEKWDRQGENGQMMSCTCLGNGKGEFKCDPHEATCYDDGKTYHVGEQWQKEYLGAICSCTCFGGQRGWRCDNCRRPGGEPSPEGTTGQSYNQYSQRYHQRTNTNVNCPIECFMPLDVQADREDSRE
UniProt P12830: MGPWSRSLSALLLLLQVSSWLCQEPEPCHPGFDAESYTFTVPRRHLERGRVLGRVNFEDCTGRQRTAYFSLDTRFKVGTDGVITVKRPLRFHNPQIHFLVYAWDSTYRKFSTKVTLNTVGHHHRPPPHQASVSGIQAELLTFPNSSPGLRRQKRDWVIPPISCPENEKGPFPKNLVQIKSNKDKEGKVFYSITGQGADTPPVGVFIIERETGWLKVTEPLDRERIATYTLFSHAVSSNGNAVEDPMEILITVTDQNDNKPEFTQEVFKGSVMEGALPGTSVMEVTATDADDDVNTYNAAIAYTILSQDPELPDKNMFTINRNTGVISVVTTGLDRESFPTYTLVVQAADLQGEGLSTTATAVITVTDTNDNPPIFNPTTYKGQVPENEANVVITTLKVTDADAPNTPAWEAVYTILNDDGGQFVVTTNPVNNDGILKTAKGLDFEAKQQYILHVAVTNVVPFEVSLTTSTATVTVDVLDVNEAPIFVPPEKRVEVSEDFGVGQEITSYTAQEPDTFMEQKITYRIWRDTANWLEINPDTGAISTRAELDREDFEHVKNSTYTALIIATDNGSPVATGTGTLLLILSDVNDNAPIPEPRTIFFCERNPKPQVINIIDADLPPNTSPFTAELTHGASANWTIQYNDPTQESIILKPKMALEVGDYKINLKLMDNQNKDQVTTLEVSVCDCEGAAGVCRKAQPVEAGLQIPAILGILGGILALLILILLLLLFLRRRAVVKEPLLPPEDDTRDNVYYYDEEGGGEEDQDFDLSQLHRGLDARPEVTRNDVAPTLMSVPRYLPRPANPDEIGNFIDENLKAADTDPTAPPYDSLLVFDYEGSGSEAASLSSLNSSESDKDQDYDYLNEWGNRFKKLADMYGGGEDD

Biological target: Flag-tagged CTSV (Cathepsin V) (human) (UniProt O60911)
Assay: affinity purification with mass spectrometry; lysates of A549 and NCI-H1975 cells transfected with Flag-tagged CTSV; Flag-conjugated beads, 4°C, 8 h; beads washed 5 times; SDS-PAGE and mass spectrometry

| binding | Substance |
| --- | --- |
| binds | fibronectin, endogenous (from UniProt P02751 32-2477) |
| binds | E-cadherin, endogenous (from UniProt P12830) |

These are yes or no findings as the source states them, for the method shown. In cells and extracts the contact can be indirect. A yes stands for co-enrichment or nearness to the bait. Other partners may have been found.
